Plain letter strings leave the end groups untold.
Columns and labels:
Details in all cases: whole synthesis
[1] = general procedure: Fmoc solid-phase peptide synthesis; Fmoc-Leu-HMP resin; HBTU/HOBt, DIEA
[2] = general procedure: Fmoc solid-phase peptide synthesis; Fmoc-Ala-HMP resin; HBTU/HOBt, DIEA
[3] = general procedure: Fmoc solid-phase peptide synthesis; H-His(Trt)-Trt(2-Cl)-resin; HBTU/HOBt, DIEA

HGHGLALLAHALLAHAAAAL
crude mass [1]: 111.8 mg | crude yield ([1]; theoretical value 200.7 mg from resin): 55.7%

HHGGLLLLHHHAAAAALLLAAAAA
crude mass [2]: 233.4 mg | crude yield ([2]; theoretical value 242.0 mg from resin): 96.4%

HGHGGGGGGGGGAHALLAHAALAH
crude mass [3]: 182.9 mg | crude yield ([3]; theoretical value 222.0 mg from resin): 82.4%

Reference: US9526791B2 (Taiho Pharmaceutical Co., Ltd., priority 2012, dated 2016)
